# According to article PMC7819943, “Rice protein-binding microarrays: a tool to detect cis-acting elements near promoter regions in rice”:
# By UniProt entry, the sequences of proteins in these tests, tags left out.
# UniProt Q0JBA9, entry or part of it: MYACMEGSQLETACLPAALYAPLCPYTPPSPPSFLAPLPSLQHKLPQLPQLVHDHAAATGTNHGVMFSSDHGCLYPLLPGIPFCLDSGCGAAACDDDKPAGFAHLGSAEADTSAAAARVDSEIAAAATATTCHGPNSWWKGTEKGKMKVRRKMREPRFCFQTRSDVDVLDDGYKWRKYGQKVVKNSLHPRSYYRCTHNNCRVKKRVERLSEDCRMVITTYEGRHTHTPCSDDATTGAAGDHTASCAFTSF
# The other results are listed elsewhere or left out.
# Molecular target: OsWRKY34 (Oryza sativa, UniProt Q0JBA9 1-250)
# Experiment: protein-binding microarray (RPBM); PBS, 2% BSA, 51.3 ng/ul salmon testes DNA, 50 uM zinc acetate, 200 nM TF, 25 C, 1 h; high values mean tight binding
# Settings: protein: recombinant; tags: N-terminal polyhistidine and DsRed monomer fusion (pET32a); label: CyDye5-dUTP incorporated in the synthesized complementary strand; 3' TTTTT single-stranded linker to array surface; dsDNA, one strand shown
# In short: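 Transcription factors were each fused at the N-terminus to a polyhistidine tag plus DsRed and expressed in E. coli BL21-CodonPlus before Ni–NTA purification. Binding to a double-stranded custom Agilent array was carried out with 200 nM protein at 25 °C for 1 h in PBS, 2% BSA, salmon testes DNA and 50 µM zinc acetate. The binding signal is per-feature fluorescence intensity, in arbitrary units, on an Axon 4000B scanner.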
row,Sequence,binding signal
1,CTTCGGTTTGGTTATTTCCTTTCCTCGCCGCTTTTTTCTTCGGAGTCACCTAGTGCAG,14000 fluorescence intensity (a.u.)
2,CAGAGGCGAGTCGATGGATGCCTTTGCTTGACTTTTTCGGCGGAGTCACCTAGTGCAG,8030 fluorescence intensity (a.u.)
3,CACCTCATTACCCGCGCTTTCCGCCCGGCAATTACACCAACGGAGTCACCTAGTGCAG,8830 fluorescence intensity (a.u.)
4,TGTCCCTGAGCTCACCAGCCGCTTCAGTTCATATCGTTGACGGAGTCACCTAGTGCAG,10300 fluorescence intensity (a.u.)
5,TTTGCCAGTAGGTCCAATACTTCGGATCTGTTTTTTTTTCCGGAGTCACCTAGTGCAG,8210 fluorescence intensity (a.u.)
6,ATTATTTTTTTAATTTTCGGCACACGTGTTTTCAAATATTCGGAGTCACCTAGTGCAG,8850 fluorescence intensity (a.u.)
7,CCGTACCCTTAATTTGTTTTGCCTATTTAGGGTTTATTATCGGAGTCACCTAGTGCAG,8190 fluorescence intensity (a.u.)
8,CATCGTATCGTAACTCCATAAACCTTACACCGCATCTTGTCGGAGTCACCTAGTGCAG,8040 fluorescence intensity (a.u.)
9,GTTGCCAATTTTGCAGCACGGCTGATAATTGTGATTGGTCCGGAGTCACCTAGTGCAG,9000 fluorescence intensity (a.u.)
10,TCCCGGAAGACGTCACACCACACCGCCATCGACTCCCTCGCGGAGTCACCTAGTGCAG,8950 fluorescence intensity (a.u.)
11,TACCTTCTAACTGCCGACCCACCTTCACGCAGCGGCCTCTCGGAGTCACCTAGTGCAG,13300 fluorescence intensity (a.u.)
12,TTTTTATCAACGGTTACTGTTTCTACAATTTGTTTTTTCCCGGAGTCACCTAGTGCAG,8890 fluorescence intensity (a.u.)
13,AGCGATTCAATTGGTTAATTGTGTTGAAGTCTATTGTTGCCGGAGTCACCTAGTGCAG,8570 fluorescence intensity (a.u.)
14,TGTGCTATCTATGCTCGTTTTTTCTCAGTTTTTATTCAAACGGAGTCACCTAGTGCAG,8720 fluorescence intensity (a.u.)
15,AATGTACATGTCGGTCCTCCTTACTTCTCATGGCAGCAATCGGAGTCACCTAGTGCAG,8350 fluorescence intensity (a.u.)
16,GGCTCAGTTTATCTTGCATGGGAAGCTCTTAACAAATTCACGGAGTCACCTAGTGCAG,8470 fluorescence intensity (a.u.)
17,CCTGTAATCACATATCTTATGCTAGTCTTGCTTTTAACCTCGGAGTCACCTAGTGCAG,9710 fluorescence intensity (a.u.)
18,CACACTGTTCCTCTCGCTCGCTCGCTCGACGCCCGCCATGCGGAGTCACCTAGTGCAG,8230 fluorescence intensity (a.u.)
19,GGAGGTGGTGGCGCGAGGGGAAGGTGGATGTGGCGGTGGCCGGAGTCACCTAGTGCAG,10700 fluorescence intensity (a.u.)
20,TCTTAGGGTTAGGGTTTCGTCTATTCGTTGCCTTCCTCGCCGGAGTCACCTAGTGCAG,9090 fluorescence intensity (a.u.)
21,CGCACAGCTGCACACCACCTTACGAGCTCGATGTCCTACACGGAGTCACCTAGTGCAG,8610 fluorescence intensity (a.u.)

# A few values from the results shown:
# Value for TGTCCCTGAGCTCACCAGCCGCTTCAGTTCATATCGTTGACGGAGTCACCTAGTGCAG under binding signal: 10300 fluorescence intensity (a.u.)
# Value for TTTTTATCAACGGTTACTGTTTCTACAATTTGTTTTTTCCCGGAGTCACCTAGTGCAG under binding signal: 8890 fluorescence intensity (a.u.)

# The list goes on.

row,Sequence,binding signal
1,GTAAGCTCACATAATTTGTACTCATCCAAACTCACATAAACGGAGTCACCTAGTGCAG,9380 fluorescence intensity (a.u.)
2,TCCTCTGCACACACCTTCCGGCGGCGCACCAGGCGGACTCCGGAGTCACCTAGTGCAG,10400 fluorescence intensity (a.u.)
3,GGCCACTTCCTCCCTCTCCCTGTGCATGCGCTCTCTTCCCCGGAGTCACCTAGTGCAG,9400 fluorescence intensity (a.u.)
4,TCTGATACTGTATGTGTTGCTTTCAGTTGGCCATCTATATCGGAGTCACCTAGTGCAG,10100 fluorescence intensity (a.u.)
5,CCTTCCTTTCTTCTCTTTCTACTACAGTACACCACACTTTCGGAGTCACCTAGTGCAG,9220 fluorescence intensity (a.u.)
6,TTTCGTATGGATCGAGATTAAGCCACTTTAGCATCGTTCGCGGAGTCACCTAGTGCAG,8350 fluorescence intensity (a.u.)
7,GCCATCGATTTTGCTATATATTTGTCGATAAATTTTTCTCCGGAGTCACCTAGTGCAG,13000 fluorescence intensity (a.u.)
8,ATATTCATTATAATATATCATATTATTTTTTACAAAATCTCGGAGTCACCTAGTGCAG,8120 fluorescence intensity (a.u.)
9,GGAGGGTGGAGGGCGGAGGACGGAGGTGGTGGCGCCGCGCCGGAGTCACCTAGTGCAG,9550 fluorescence intensity (a.u.)
10,GCAAGTTTTTAGGCTCTCTTCAACCCTCGGCTCTGCTACCCGGAGTCACCTAGTGCAG,9130 fluorescence intensity (a.u.)
11,AACTTTCAACTTTTCCGTCACATTAAATATTTGGACACATCGGAGTCACCTAGTGCAG,10500 fluorescence intensity (a.u.)
12,CAACCAACCCCACCACGCGTCCTGCATAATCACCGTCCGTCGGAGTCACCTAGTGCAG,8840 fluorescence intensity (a.u.)
13,TACTGTTTGGTTGTTCTTTACCTGGAGATGTTGTACATGTCGGAGTCACCTAGTGCAG,10800 fluorescence intensity (a.u.)
14,AGTAACTGTAACTGAAGAAGCCGGCGCCACCATTCCCGCCCGGAGTCACCTAGTGCAG,8100 fluorescence intensity (a.u.)
15,TTGCCTCACGGCGTTACGTGCCCAGCTGATTTCCCGTTTACGGAGTCACCTAGTGCAG,10800 fluorescence intensity (a.u.)
16,CGTATTTTAATATATGACGCCGTTGACTTTTTATTAACGACGGAGTCACCTAGTGCAG,23200 fluorescence intensity (a.u.)
17,ATATATTCGGCCACACCCACACCTAGCTTCGTTGCAGCTACGGAGTCACCTAGTGCAG,8420 fluorescence intensity (a.u.)
18,TCTCTTGCTGTGTGTGGCGCCTGCTTTCCTCGAGGATAACCGGAGTCACCTAGTGCAG,10900 fluorescence intensity (a.u.)
19,ATCGAAACCGTGGATGGACTTGGGGTTGGGTGGTGGTGGTCGGAGTCACCTAGTGCAG,11700 fluorescence intensity (a.u.)
20,TCTCCTGCCTACTATTTCCATTGTCTGTCGGAATATTTTTCGGAGTCACCTAGTGCAG,8520 fluorescence intensity (a.u.)
21,TTACAACACCATTGGCATTTGGTTGTCATTGACGCTGCTACGGAGTCACCTAGTGCAG,8200 fluorescence intensity (a.u.)
